# Results are given in words; binding and its absence hold for the method and conditions named. Binding seen in cells or lysates may run through a third protein. Binding can be weak; no strength is given.
# Chains of the proteins cited; added tags and fusions are not shown. Lines headed by an entry give the natural chain unless they say otherwise; changes in a name come on top.
# UniProt O43524, whole entry, stated change not applied: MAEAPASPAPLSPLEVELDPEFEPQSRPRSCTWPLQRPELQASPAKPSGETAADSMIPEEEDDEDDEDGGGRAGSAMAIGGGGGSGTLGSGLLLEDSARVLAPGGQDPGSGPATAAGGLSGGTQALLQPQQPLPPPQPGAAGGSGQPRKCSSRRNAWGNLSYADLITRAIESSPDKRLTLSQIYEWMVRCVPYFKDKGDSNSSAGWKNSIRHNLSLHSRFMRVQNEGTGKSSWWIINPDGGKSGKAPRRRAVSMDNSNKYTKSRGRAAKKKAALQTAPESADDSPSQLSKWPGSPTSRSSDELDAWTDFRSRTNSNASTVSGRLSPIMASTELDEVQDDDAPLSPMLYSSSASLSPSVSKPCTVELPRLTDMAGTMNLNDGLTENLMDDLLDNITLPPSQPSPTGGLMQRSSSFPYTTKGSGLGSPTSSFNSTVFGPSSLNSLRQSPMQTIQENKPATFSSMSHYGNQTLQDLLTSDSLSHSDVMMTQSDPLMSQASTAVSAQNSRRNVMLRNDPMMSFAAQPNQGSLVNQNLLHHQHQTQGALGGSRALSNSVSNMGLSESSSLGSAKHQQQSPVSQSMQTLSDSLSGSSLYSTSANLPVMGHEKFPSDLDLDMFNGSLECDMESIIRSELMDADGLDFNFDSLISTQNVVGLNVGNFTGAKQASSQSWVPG
# Biological target: HA-FOXO3 (UniProt O43524)
# Test: co-IP; total lysates of 293T cells cotransfected with HA-tagged FOXO3 plus myc-tagged βTrCP1 or βTrCP1ΔF, and IKKβ or an empty vector; IP anti-myc and IB anti-HA, and reciprocal IP anti-HA and IB anti-myc
substance,measurement,value
βTrCP1ΔF-myc (from UniProt Q9Y297),binding,binds

# — article PMC2896402
